Experimental data published in PubChem BioAssay AID504467 (National Center for Advancing Translational Sciences (NCATS), 2011).
About 7,700 (2.3%) of roughly 330,000 compounds were called active. The inconclusive results got no clear call from the source; some entries with a clear call stand among them for comparison. Calls come from the whole dose curve; as a rule, active = well fitted inhibition curve with a large enough effect; inconclusive = small, poorly fitted or top-dose-only effect, or effect the other way; inactive = flat fitted curve, though single readings scatter. Potencies beside an inconclusive call are fits to weak or partial responses and may not hold up.

experiment: qHTS screen for small molecules that inhibit ELG1-dependent DNA repair in human embryonic kidney (HEK293T) cells expressing luciferase-tagged ELG1; conditions: HEK293T ELG1-luciferase reporter, luminescence, 16 h, DNA damage induced by 5-fluorouridine; activity change, negative = inhibition: at 46.1 µM (top of the series); note: nearly all actives have a fitted effect of over 55% in size
Outline: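 5-Fluorouridine DNA damage + compound/DMSO, 2,000 cells/well, 16 h, 37 °C/5% CO2. ONE-Glo, 30 min RT, luminescence. Readout = decrease in reporter signal.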
% is set by controls: 0 for no effect and ±100 for the full control effect; potency is the fitted concentration of half-maximal effect.

Row | SMILES | Potency | activity change, negative = inhibition
1 | COC(=O)/C(=C1/Oc2ccc(C(C)(C)C)cc2S1)C(F)(F)F | inconclusive: 14.6 µM [activator, partial curve] | 
2 | O=C(N/C(=C\c1ccc([N+](=O)[O-])cc1)C(=O)N1CCCCC1)c1ccccc1Br |  | inactive: 10.1%
3 | Cc1c(C(=O)N2CCc3ccccc3C2)oc2ccccc12 | inconclusive: 16.4 µM [activator, partial curve] | 
4 | CCCc1cc(C(=O)Nc2cc(C)ccc2O)no1 | inconclusive: 8.2 µM [activator, partial curve] | 
5 | Cc1ccc(NC(=O)Nc2cccnc2)cc1Cl | inconclusive: 16.4 µM [activator, partial curve] | 
6 | Cc1ccc(C(=O)COc2cc(C)nc3nncn23)cc1 |  | inactive: 0.836%
7 | O=C(NC1CCSc2ccccc21)c1ccc(F)c(S(=O)(=O)N2CCOCC2)c1 (configuration not stated) | inconclusive: 23.1 µM [activator, single point] | 
8 | COc1cccc(CN2CCN(C(=S)NCc3ccc(Cl)cc3)CC2)c1 | inconclusive: 25.9 µM [inhibitor, single point] | 
9 | CCc1nn(C(C)C(=O)Nc2cccc(C)c2C)c(=O)c2cc3occc3n12 (configuration not stated) | inconclusive: 1.16 µM [inhibitor, single point] | 
10 | COCCCNS(=O)(=O)c1ccc2[nH]c(=O)[nH]c2c1 | inconclusive: 29.1 µM [activator, single point] | 
11 | CC(C)c1nnc(NC(=O)c2ccc3c(c2)OCO3)s1 | inconclusive: 0.82 µM [activator, partial curve] | 
12 | Cc1cccc(NS(=O)(=O)c2nnc(NC(=O)C3CCCCC3)s2)c1 |  | inactive: -3.69%
13 | NC(=O)CC1C(=O)N(c2ccccc2)C(=S)N1NC(=O)c1ccccc1 (configuration not stated) | inconclusive: 23.1 µM [activator, single point] | 
14 | CCCCCN(C(=O)CCC(=O)OCC(=O)N1CCC(C)CC1)c1c(N)n(CCCC)c(=O)[nH]c1=O | inconclusive: 23.1 µM [activator, single point] | 
15 | C/C=C/C=C/C(=O)N1CC2(CC(c3cccc(NC(=O)CCCCC)c3)=NO2)C[C@H]1C(N)=O (some centres not stated) |  | inactive: -19.5%
16 | O=C(NC1CCCc2c1cnn2-c1ccccc1F)c1ccccn1 (configuration not stated) | inconclusive: 4.11 µM [activator, partial curve] | 
17 | C[C@@H]1CN([C@@H](C)CO)C(=O)c2cc(NC(=O)Nc3ccc4c(c3)OCO4)ccc2O[C@H]1CN(C)S(=O)(=O)c1ccc(F)cc1 | active: 25.9 µM | 
18 | COc1ccc(CCNC(=O)CSc2ccccn2)cc1OC |  | inactive: 4.48%
19 | COc1ccccc1NC(=S)NNC(=O)c1ccccc1Br | inconclusive: 16.4 µM [activator, partial curve] | 
20 | O=C(Nc1cccc(C(F)(F)F)c1)c1cnc2n(c1=O)CCS2 | inconclusive: 16.4 µM [activator, single point] | 
21 | N#C/C(=C\c1ccc(OC(=O)c2ccc(Br)s2)cc1)c1nc2ccccc2[nH]1 | inconclusive: 8.2 µM [activator, partial curve] | 
22 | Cc1ccc(-c2cc(C(=O)Nc3ccc(S(=O)(=O)Nc4cc(C)on4)cc3)c3ccccc3n2)c(C)c1 |  | inactive: 12.5%
23 | CCCCCCC1CC(C)(C(=O)CNc2nncs2)OC1=O (configuration not stated) |  | inactive: 1.07%

Row | SMILES | Potency | activity change, negative = inhibition
24 | COC(=O)c1ccccc1OCCOCCOc1cccc2ccc(C)nc12 | inconclusive: 18.3 µM [inhibitor, single point] | 
25 | CN(C)/C=C/C(=O)c1ccc(Cl)s1 | inconclusive: 20.6 µM [activator, single point] | 
26 | Cc1ccc(S(=O)(=O)N(CCCN2CCCC2=O)Cc2cc3c(C)ccc(C)c3[nH]c2=O)cc1 | inconclusive: 35.5 µM [inhibitor, single point] | 
27 | CCOC(=O)C1CCN(C(=O)c2cc3c(s2)-c2ccccc2OC3)CC1 | inconclusive: 23.1 µM [activator, partial curve] | 
28 | COc1cc(NC(=O)c2cc3ccccc3cc2OC)ccc1NC(=O)c1cccs1 | active: 14.6 µM | 
29 | COc1cc(CNc2ccc(N3CCOCC3)cc2)cc(Br)c1OC | inconclusive: 20.6 µM [inhibitor, single point] | 
30 | COCCC(=O)N1CCC(Oc2ccc(C(=O)NCc3cccc(C)n3)cc2)CC1 |  | inactive: 1.95%
31 | O=C(NCc1cccnc1)c1ccc(S(=O)(=O)N2CCCCCC2)cc1 | inconclusive: 23.1 µM [inhibitor, single point] | 
32 | NS(=O)(=O)c1ccc(NC(=S)N2CCN(Cc3ccc(Cl)c(Cl)c3)CC2)cc1 | inconclusive: 11.6 µM [inhibitor, partial curve, poor fit] | 
33 | Cc1cc(C)c(NC(=O)CCc2c(C)noc2C)c(C)c1 |  | inactive: 7.02%
34 | COc1c(Br)cc(Br)cc1/C=N/n1c(C)nnc1C | inconclusive: 9.2 µM [activator, partial curve, poor fit] | 
35 | Cc1cccc(NC(=O)COc2cccc3c2CCN(C)C3=O)c1 | inconclusive: 23.1 µM [inhibitor, single point] | 
36 | CC(C(=O)Nc1ccc2c(c1)OCO2)N1CCC(N2CCCCC2)CC1 (configuration not stated) | inconclusive: 32.6 µM [activator, single point] | 
37 | COc1ccc(-c2nn(-c3ccccc3)cc2/C=C\C(=O)N2CCOCC2)cc1[N+](=O)[O-] | inconclusive: 2.31 µM [inhibitor, partial curve] | 
38 | COc1ccc(/C=C2\CCCc3c2nc2ccccc2c3C(=O)O)cc1OC | inconclusive: 23.1 µM [activator, partial curve] | 
39 | CCc1ccc(CNC(=O)CCc2cn(C)c3ccccc23)cc1 | inconclusive: 6.51 µM [inhibitor, partial curve, poor fit] | 
40 | FC(F)(F)c1cnc(C(c2ccccc2)c2ncn[nH]2)c(Cl)c1 (configuration not stated) |  | inactive: 1.93%
41 | Fc1ccc(-c2cnn3c(-c4cccs4)ccnc23)cc1 | inconclusive: 2.59 µM [activator, partial curve] | 
42 | CC(C)c1c(C(=O)N/N=C2\CCc3ccccc32)nnn1-c1nonc1N |  | inactive: 9.48%
43 | CCN1CCN(C(c2ccccc2)c2nnnn2Cc2ccc3c(c2)OCO3)CC1 (configuration not stated) | inconclusive: 16.4 µM [activator, partial curve, poor fit] | 
44 | CCO/N=C/c1ccc(OC)c(Oc2nc(OC)cc(OC)n2)c1 |  | inactive: -12.7%
45 | CCN1CCN(C(=O)c2cc3c(s2)-c2c(C)cccc2OC3)CC1 | inconclusive: 13 µM [activator, partial curve] | 
46 | CC(=O)N1CCC(C(=O)OCc2ccc(Cl)cc2)(c2ccccc2)CC1 | inconclusive: 8.2 µM [inhibitor, partial curve, poor fit] | 

Random excerpt: 2 compounds from above
Row | SMILES | Potency | activity change, negative = inhibition
33 | Cc1cc(C)c(NC(=O)CCc2c(C)noc2C)c(C)c1 |  | inactive: 7.02%
38 | COc1ccc(/C=C2\CCCc3c2nc2ccccc2c3C(=O)O)cc1OC | inconclusive: 23.1 µM [activator, partial curve] | 

Remaining list, next part

Row | SMILES | Potency | activity change, negative = inhibition
47 | O=C(CCS(=O)(=O)c1ccccc1)N(CCCN1CCOCC1)c1nc2ccccc2s1 | inconclusive: 7.3 µM [activator, partial curve, poor fit] | 
48 | COc1ccc(/C=C2\SC(=S)N(C(C)C(=O)NC3C=CS(=O)(=O)C3)C2=O)cc1 (configuration not stated) | inconclusive: 13 µM [activator, partial curve] | 
49 | COc1ccc(CN2CCN(CC(=O)Nc3ccccc3C(=O)NC3CC3)CC2)cc1F | active: 2.59 µM | 
50 | CCOc1ccc(C(=O)Nc2cccc3ncccc23)cc1Br |  | inactive: -19.3%
51 | Cc1nc2ccc(NC(=S)N3CCN(c4ccccn4)CC3)cc2nc1C | inconclusive: 20.6 µM [inhibitor, partial curve] | 
52 | CC(=O)Nc1ccc(S(=O)(=O)Nc2ccc3c(c2)n(C)c(=O)n3C)c(C)c1 | inconclusive: 16.4 µM [activator, partial curve] | 
53 | Cc1ccc2nc(-c3ccc(S(=O)(=O)N4CCCCC4)cc3)cn2c1 | inconclusive: 20.6 µM [activator, partial curve] | 
54 | COc1ccc(/C=N/NC(=O)c2nnn(-c3nonc3N)c2-c2cccc(OC)c2)cc1 |  | inactive: 2.63%
55 | C[C@H]1CN=C(N(C)C)N1CCC1CCCCC1 |  | inactive: 15.4%
56 | CCC1=C(OC(=O)N(CC)CC)N2C(=O)OC(=NCCc3c[nH]c4ccccc34)[C@]2(Cc2ccccc2)[C@H]2C1=CC[C@H]1C(=O)N(CC(=O)OC)C(=O)[C@H]12 |  | inactive: -0.905%
57 | CC(=O)Nc1c(I)c(C(=O)N[C@H]2C(O)O[C@H](CO)[C@@H](O)[C@@H]2O)c(I)c(N(C)C(C)=O)c1I (some centres not stated) |  | inactive: 14.7%
58 | Cc1ccc(-c2nnc(NC(=O)CCS(=O)(=O)c3ccccc3)o2)c(C)c1 | inconclusive: 9.2 µM [activator, partial curve, poor fit] | 
59 | CN(C)S(=O)(=O)Oc1cccc(C(=O)Nc2ccc(Cl)cc2)c1 | inconclusive: 4.61 µM [activator, partial curve] | 
60 | CCOC(=O)c1cc(C#N)c(Oc2ccccc2OC)nc1-c1ccccc1 | inconclusive: 25.9 µM [inhibitor, partial curve, poor fit] | 
61 | COCCn1c(C)cc(C(=O)COC(=O)c2ccc[nH]c2=O)c1C | inconclusive: 2.91 µM [activator, full curve] | 
62 | Cc1[nH][nH]c(=O)c1C(c1c(C)[nH][nH]c1=O)c1cn(Cc2ccccc2Cl)c2ccccc12 |  | inactive: 8.77%
63 | CCS(=O)c1ccccc1C(=O)OCC(=O)Nc1ccc2ccccc2c1 (configuration not stated) |  | inactive: -22.3%
64 | c1ccc(OCCOc2ncnc3sccc23)cc1 | inconclusive: 18.4 µM [activator, partial curve] | 
65 | CCOC(=O)Cc1csc(NC(=O)COc2ccc3ccccc3c2)n1 |  | inactive: 0.837%
66 | CN(CC(=O)NC1CCCc2ccccc21)S(=O)(=O)c1ccc2c(c1)c(=O)n(C)c(=O)n2C (configuration not stated) | inconclusive: 29.1 µM [inhibitor, single point] | 
67 | S=C(Nc1ccccc1Cl)N(Cc1ccccc1)Cc1ccccn1 | inconclusive: 29.1 µM [inhibitor, single point] | 
